Source: the supplement of paper PMC10849652
The list shows a part of the results.

Chains of the proteins cited; added tags and fusions are not shown. Lines headed by an entry give the natural chain unless they say otherwise; changes in a name come on top.
UniProt Q13433: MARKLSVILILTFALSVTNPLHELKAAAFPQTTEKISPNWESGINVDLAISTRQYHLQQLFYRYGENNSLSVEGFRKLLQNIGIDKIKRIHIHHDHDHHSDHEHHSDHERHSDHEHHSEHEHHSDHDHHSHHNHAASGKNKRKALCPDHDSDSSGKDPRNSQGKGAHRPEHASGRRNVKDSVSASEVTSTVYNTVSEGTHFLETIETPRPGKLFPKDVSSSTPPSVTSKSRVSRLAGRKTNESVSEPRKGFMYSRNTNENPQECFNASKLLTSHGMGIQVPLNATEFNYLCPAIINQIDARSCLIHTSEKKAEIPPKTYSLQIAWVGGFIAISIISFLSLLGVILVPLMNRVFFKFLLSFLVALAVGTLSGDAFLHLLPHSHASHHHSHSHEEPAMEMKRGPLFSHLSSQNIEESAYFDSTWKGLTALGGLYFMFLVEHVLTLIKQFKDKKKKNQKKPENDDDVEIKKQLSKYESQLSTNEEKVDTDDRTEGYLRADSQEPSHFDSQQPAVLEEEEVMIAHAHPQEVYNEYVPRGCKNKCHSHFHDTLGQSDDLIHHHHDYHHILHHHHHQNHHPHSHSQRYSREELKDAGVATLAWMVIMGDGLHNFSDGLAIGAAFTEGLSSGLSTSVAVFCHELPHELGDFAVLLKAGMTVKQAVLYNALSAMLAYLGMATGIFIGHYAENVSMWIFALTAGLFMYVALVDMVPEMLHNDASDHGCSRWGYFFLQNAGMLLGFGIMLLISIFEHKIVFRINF
UniProt Q9BXS9: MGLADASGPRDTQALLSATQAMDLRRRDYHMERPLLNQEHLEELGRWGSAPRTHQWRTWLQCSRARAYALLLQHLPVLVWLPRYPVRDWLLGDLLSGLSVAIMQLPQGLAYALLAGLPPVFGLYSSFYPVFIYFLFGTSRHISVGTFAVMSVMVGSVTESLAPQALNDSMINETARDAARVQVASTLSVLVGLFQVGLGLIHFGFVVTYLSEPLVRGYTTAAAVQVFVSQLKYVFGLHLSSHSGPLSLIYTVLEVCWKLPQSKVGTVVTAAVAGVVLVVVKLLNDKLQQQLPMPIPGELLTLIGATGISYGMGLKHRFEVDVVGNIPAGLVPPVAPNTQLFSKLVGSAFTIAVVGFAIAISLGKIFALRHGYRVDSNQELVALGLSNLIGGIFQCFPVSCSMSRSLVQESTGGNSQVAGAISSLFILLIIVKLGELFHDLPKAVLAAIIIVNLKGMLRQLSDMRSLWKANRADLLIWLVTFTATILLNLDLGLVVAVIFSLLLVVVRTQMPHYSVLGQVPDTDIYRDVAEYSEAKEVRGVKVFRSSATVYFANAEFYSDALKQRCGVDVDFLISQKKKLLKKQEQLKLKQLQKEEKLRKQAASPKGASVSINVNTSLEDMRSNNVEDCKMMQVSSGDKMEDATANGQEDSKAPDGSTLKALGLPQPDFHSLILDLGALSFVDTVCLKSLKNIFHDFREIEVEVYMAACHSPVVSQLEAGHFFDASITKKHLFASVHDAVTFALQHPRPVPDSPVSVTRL
UniProt Q9H2D1: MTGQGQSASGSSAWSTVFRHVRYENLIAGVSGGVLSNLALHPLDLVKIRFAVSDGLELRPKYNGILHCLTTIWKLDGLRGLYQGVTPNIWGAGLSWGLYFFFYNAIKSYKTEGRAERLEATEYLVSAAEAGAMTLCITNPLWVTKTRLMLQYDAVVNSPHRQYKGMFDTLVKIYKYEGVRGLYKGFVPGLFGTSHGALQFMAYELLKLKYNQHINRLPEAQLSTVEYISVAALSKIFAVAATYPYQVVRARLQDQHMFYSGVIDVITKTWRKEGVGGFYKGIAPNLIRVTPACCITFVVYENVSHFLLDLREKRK
UniProt Q9BSK2: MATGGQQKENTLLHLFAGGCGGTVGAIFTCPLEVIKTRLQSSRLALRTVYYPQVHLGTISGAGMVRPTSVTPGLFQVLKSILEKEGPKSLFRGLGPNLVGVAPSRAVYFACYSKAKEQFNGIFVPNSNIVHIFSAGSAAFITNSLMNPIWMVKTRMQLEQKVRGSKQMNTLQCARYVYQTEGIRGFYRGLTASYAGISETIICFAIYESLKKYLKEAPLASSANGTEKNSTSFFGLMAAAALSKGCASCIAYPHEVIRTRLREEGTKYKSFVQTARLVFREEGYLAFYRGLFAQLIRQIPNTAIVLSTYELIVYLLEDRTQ
UniProt Q9UPY5: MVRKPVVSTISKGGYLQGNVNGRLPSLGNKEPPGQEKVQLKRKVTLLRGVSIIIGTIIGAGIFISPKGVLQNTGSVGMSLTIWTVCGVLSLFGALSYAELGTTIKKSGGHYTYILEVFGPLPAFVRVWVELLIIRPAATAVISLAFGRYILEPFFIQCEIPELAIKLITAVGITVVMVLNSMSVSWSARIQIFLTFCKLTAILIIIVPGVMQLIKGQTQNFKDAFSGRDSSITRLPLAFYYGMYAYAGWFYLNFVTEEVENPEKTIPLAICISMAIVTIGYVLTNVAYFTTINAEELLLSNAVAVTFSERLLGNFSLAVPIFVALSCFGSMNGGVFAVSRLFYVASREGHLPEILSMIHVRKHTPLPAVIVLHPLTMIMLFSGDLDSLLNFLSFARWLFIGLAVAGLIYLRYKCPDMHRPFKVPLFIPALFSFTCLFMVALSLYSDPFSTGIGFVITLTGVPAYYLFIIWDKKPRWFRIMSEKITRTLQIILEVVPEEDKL
UniProt Q96BI1: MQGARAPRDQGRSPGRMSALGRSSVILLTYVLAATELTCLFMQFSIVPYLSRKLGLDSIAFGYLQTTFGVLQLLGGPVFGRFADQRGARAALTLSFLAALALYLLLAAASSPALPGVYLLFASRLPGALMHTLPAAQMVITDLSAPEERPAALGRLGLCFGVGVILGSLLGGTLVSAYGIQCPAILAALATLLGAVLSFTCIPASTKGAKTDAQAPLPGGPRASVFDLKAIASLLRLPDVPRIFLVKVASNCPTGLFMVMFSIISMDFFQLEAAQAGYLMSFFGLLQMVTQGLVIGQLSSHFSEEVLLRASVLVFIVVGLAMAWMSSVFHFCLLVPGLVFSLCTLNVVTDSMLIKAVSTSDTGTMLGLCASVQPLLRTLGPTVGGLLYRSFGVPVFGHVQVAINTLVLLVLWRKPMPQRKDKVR
UniProt P02730: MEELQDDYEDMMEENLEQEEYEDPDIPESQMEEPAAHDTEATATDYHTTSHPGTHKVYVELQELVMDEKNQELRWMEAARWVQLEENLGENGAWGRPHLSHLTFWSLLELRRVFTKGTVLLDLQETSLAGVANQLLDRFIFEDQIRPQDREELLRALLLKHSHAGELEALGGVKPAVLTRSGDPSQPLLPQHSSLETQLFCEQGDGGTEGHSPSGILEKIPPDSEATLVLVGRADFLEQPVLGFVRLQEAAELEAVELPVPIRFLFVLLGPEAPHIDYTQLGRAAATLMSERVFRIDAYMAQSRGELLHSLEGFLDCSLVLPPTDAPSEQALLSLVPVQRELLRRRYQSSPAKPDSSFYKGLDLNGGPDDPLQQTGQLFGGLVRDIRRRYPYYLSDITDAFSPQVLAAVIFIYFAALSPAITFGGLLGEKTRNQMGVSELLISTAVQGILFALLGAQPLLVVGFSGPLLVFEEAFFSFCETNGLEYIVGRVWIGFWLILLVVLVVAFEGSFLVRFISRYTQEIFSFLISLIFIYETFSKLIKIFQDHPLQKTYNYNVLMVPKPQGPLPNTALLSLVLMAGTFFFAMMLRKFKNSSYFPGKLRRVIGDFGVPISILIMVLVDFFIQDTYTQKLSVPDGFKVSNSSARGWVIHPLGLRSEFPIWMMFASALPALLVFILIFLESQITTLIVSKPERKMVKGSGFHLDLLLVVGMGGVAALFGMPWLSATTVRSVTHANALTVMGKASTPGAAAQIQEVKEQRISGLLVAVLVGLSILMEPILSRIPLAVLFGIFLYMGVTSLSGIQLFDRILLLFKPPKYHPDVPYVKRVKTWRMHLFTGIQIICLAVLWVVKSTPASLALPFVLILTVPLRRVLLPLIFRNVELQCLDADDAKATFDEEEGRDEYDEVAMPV
UniProt Q99808: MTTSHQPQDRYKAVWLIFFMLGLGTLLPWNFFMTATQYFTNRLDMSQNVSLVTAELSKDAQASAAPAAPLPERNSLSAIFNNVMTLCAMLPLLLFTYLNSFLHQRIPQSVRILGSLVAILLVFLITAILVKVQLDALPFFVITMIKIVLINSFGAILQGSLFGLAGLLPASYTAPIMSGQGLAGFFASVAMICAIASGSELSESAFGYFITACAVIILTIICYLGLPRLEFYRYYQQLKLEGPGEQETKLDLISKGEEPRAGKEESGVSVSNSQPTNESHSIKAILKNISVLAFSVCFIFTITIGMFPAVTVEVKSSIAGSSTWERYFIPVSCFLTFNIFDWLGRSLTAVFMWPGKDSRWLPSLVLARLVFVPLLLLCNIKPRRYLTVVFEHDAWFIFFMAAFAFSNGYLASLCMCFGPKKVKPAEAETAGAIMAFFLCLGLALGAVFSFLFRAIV
UniProt Q9BWU0: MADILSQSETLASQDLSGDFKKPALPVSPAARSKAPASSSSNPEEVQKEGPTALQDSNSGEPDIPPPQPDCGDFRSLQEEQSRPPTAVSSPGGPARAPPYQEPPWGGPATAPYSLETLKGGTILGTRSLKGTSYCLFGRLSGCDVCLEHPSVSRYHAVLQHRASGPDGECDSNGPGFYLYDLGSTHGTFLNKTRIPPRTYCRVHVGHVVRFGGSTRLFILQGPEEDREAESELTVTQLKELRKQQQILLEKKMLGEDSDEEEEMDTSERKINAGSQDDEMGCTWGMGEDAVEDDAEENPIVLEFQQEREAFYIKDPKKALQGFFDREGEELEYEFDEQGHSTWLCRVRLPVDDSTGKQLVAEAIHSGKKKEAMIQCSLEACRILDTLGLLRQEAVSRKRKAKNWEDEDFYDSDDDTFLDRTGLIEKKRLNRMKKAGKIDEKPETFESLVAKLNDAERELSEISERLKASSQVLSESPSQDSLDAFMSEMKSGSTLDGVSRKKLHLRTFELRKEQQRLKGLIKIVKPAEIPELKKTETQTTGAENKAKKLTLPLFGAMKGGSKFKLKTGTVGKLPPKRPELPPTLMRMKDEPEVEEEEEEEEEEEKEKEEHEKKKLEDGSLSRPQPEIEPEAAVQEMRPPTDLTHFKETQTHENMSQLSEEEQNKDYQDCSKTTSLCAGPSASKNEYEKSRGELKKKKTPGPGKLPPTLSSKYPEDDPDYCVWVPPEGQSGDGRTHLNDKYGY
UniProt O43826: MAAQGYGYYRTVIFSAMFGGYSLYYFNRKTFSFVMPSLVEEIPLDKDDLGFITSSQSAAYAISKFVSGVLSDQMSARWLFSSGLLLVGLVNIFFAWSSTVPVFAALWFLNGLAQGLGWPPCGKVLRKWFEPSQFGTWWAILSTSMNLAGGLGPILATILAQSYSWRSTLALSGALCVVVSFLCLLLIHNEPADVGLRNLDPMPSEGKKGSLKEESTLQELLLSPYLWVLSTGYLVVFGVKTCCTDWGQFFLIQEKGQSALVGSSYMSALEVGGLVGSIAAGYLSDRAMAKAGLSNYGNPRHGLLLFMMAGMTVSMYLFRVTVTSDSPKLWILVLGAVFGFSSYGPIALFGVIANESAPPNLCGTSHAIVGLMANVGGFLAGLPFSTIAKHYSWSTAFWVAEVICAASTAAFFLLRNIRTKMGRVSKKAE
UniProt Q9ULF5: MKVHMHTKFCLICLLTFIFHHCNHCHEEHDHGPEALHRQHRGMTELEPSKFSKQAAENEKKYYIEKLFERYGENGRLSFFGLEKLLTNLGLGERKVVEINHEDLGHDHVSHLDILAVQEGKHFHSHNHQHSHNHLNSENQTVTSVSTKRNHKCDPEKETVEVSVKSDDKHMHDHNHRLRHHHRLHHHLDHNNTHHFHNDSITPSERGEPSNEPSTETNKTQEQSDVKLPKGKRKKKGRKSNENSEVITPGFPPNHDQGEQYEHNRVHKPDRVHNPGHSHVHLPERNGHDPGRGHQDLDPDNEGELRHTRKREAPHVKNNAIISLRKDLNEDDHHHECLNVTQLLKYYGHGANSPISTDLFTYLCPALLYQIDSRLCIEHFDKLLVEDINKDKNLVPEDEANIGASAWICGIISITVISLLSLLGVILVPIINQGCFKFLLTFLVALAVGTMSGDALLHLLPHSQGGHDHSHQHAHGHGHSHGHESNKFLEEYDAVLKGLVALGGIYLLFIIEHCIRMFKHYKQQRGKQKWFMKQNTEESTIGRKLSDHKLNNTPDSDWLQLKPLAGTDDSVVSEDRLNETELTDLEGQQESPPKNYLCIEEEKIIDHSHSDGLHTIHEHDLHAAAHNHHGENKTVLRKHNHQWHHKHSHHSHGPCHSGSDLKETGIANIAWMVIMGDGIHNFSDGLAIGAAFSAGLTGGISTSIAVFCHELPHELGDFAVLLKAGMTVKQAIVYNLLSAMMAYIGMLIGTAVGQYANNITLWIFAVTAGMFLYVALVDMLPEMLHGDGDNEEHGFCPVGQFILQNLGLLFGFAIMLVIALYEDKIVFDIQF

Key:
Test in all cases: log2 fold change, soluble protein after heating vs DMSO (PISA); higher = thermal stabilisation; K562 cells, 10 uM, 30 min; active = over 0.2 and 3.5 SD of the protein, either way, in both replicates (recomputed)
[1] = compound: CS(=O)(=O)c1ccc(-c2cnc(N)c(C(=O)Nc3ccccc3)n2)cc1
In short: (§1)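 K562 cells at 2×10^6 cells/mL were given 10 μM compound for 30 min. Aliquots then went through 3 min of heating across 48°C-58°C, were pooled, and were extracted in PBS with 0.5% NP-40 at 4°C, and the supernatant after 21,000xg for 90 min was quantified by TMTpro 16plex LC-MS/MS with channel sums equalised. Thermal stability relative to control samples, from duplicates, is given as log2 fold change.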

crizotinib = compound: C[C@@H](Oc1cc(-c2cnn(C3CCNCC3)c2)cnc1N)c1c(Cl)ccc(F)c1Cl [crizotinib]
In short: as §1

[2] = compound: C[C@@H]1COCCN1C2=NC(=NC(=C2)C3(CC3)S(=O)(=O)C)C4=C5C=CNC5=CC=C4
In short: as §1

[3] = compound: C[C@H](C1=CC=C(C=C1)C(=O)NC2=C3C=CNC3=NC=C2)N
In short: as §1

duvelisib = compound: C[C@H](Nc1ncnc2nc[nH]c12)c1cc2cccc(Cl)c2c(=O)n1-c1ccccc1 [duvelisib]
In short: as §1

gandotinib = compound: Cc1cc(Nc2cc(CN3CCOCC3)c3nc(C)c(Cc4ccc(Cl)cc4F)n3n2)n[nH]1 [gandotinib]
In short: as §1

tozasertib = compound: Cc1cc(Nc2cc(N3CCN(C)CC3)nc(Sc3ccc(NC(=O)C4CC4)cc3)n2)n[nH]1 [tozasertib]
In short: as §1

[4] = compound: Cc1cc(SCc2sc(-c3ccc(C(F)(F)F)cc3)nc2C)ccc1OCC(=O)O
In short: as §1

doramapimod = compound: Cc1ccc(-n2nc(C(C)(C)C)cc2NC(=O)Nc2ccc(OCCN3CCOCC3)c3ccccc23)cc1 [doramapimod]
In short: as §1

ispinesib = compound: Cc1ccc(C(=O)N(CCCN)[C@@H](c2nc3cc(Cl)ccc3c(=O)n2Cc2ccccc2)C(C)C)cc1 [ispinesib]
In short: as §1

bafetinib = compound: Cc1ccc(NC(=O)c2ccc(CN3CC[C@H](N(C)C)C3)c(C(F)(F)F)c2)cc1Nc1nccc(-c2cncnc2)n1 [bafetinib]
In short: as §1

[5] = compound: Cc1cccc(CC(=O)N2CCc3c2ccc(-c2cn(C)c4ncnc(N)c24)c3F)n1
In short: as §1

nilotinib = compound: Cc1cn(-c2cc(NC(=O)c3ccc(C)c(Nc4nccc(-c5cccnc5)n4)c3)cc(C(F)(F)F)c2)cn1 [nilotinib]
In short: as §1

[6] = compound: Cc1nc(Nc2n[nH]c3c2CN(C(=O)N[C@H](CN(C)C)c2ccccc2)C3(C)C)c2sccc2n1
In short: as §1

dasatinib = compound: Cc1nc(Nc2ncc(C(=O)Nc3c(C)cccc3Cl)s2)cc(N2CCN(CCO)CC2)n1 [dasatinib]
In short: as §1

[7] = compound: Cc1ncc(-c2ccnc(Nc3ccc(S(C)(=O)=O)cc3)n2)n1C(C)C
In short: as §1

[8] = compound: Cn1cc(-c2ccc3c(c2)CCN3C(=O)Cc2cccc(C(F)(F)F)c2)c2c(N)ncnc21
In short: as §1

[9] = compound: Cn1cc(-c2ccc3nnc(C(F)(F)c4ccc5ncccc5c4)n3n2)cn1
In short: as §1

tipifarnib = compound: Cn1cncc1[C@@](N)(c1ccc(Cl)cc1)c1ccc2c(c1)c(-c1cccc(Cl)c1)cc(=O)n2C [tipifarnib]
In short: as §1

mubritinib = compound: FC(F)(F)c1ccc(/C=C/c2nc(COc3ccc(CCCCn4ccnn4)cc3)co2)cc1 [mubritinib]
In short: as §1

Measured: log2 fold change

SLC39A6 (UniProt Q13433)
inactive: [1] 0.024 | crizotinib 0.176 | [2] 0.139 | [3] 0.003 | duvelisib 0.122 | gandotinib -0.062 | tozasertib -0.028 | [4] -0.005 | doramapimod 0.055 | ispinesib 0.097 | bafetinib 0.044 | [5] 0.146 | nilotinib 0.115 | [6] -0.01 | dasatinib -0.041 | [7] 0.013 | [8] 0.134 | [9] 0.001 | tipifarnib 0.024 | mubritinib 0.095

SLC26A6 (UniProt Q9BXS9)
inactive: [1] 0.041 | crizotinib 0.102 | [2] 0.117 | [3] -0.038 | duvelisib -0.01 | gandotinib -0.036 | tozasertib -0.019 | [4] 0.043 | doramapimod -0.017 | ispinesib -0.005 | bafetinib 0.023 | [5] -0.11 | nilotinib 0.082 | [6] -0.026 | dasatinib 0.067 | [7] -0.032 | [8] 0.065 | [9] -0.066 | tipifarnib 0.09 | mubritinib 0.024

SLC25A32 (UniProt Q9H2D1)
inactive: [1] -0.005 | crizotinib 0.036 | [2] 0.027 | [3] -0.02 | duvelisib 0.018 | gandotinib -0.057 | tozasertib -0.002 | [4] -0.024 | doramapimod 0.019 | ispinesib 0 | bafetinib -0.014 | [5] -0.005 | nilotinib -0.001 | [6] -0.002 | dasatinib 0.041 | [7] 0.01 | [8] 0.036 | [9] -0.011 | tipifarnib 0.009 | mubritinib 0.052

SLC25A33 (UniProt Q9BSK2)
inactive: [1] -0.034 | crizotinib 0.014 | [2] 0.058 | [3] -0.028 | duvelisib -0.087 | gandotinib -0.016 | tozasertib -0.035 | [4] -0.057 | doramapimod 0.044 | ispinesib -0.134 | bafetinib -0.008 | [5] 0.025 | nilotinib -0.026 | [6] 0.035 | dasatinib -0.017 | [7] -0.01 | [8] -0.021 | [9] 0.029 | tipifarnib 0.061 | mubritinib 0.026

SLC30A9 (UniProt Q6PML9)
inactive: [1] 0.099 | crizotinib 0.016 | [2] 0.057 | [3] -0.094 | duvelisib 0.108 | gandotinib 0.048 | tozasertib -0.028 | [4] -0.015 | doramapimod -0.028 | ispinesib -0.092 | bafetinib -0.023 | [5] -0.023 | nilotinib 0.012 | [6] -0.02 | dasatinib -0.129 | [7] -0.031 | [8] 0.063 | [9] -0.106 | tipifarnib 0.02 | mubritinib -0.02

SLC7A11 (UniProt Q9UPY5)
inactive: [1] 0.015 | crizotinib 0.049 | [2] -0.01 | [3] -0.045 | duvelisib 0.093 | gandotinib 0.024 | tozasertib -0.05 | [4] -0.025 | doramapimod -0.024 | ispinesib 0.067 | bafetinib -0.075 | [5] -0.043 | nilotinib 0.073 | [6] -0.002 | dasatinib 0.033 | [7] 0 | [8] 0.05 | [9] 0.006 | tipifarnib 0.014 | mubritinib -0.003

SLC25A40 (UniProt Q8TBP6)
inactive: [1] 0.009 | crizotinib -0.023 | [2] 0.028 | [3] -0.027 | duvelisib -0.039 | gandotinib 0.035 | tozasertib 0.003 | [4] -0.069 | doramapimod -0.004 | ispinesib -0.016 | bafetinib -0.019 | [5] -0.028 | nilotinib -0.006 | [6] 0 | dasatinib 0.024 | [7] -0.01 | [8] -0.045 | [9] 0.001 | tipifarnib 0.031 | mubritinib -0.038

SLC22A18 (UniProt Q96BI1)
inactive: [1] 0.066 | crizotinib 0.159 | [2] 0.077 | [3] 0.044 | duvelisib 0.114 | gandotinib -0.018 | tozasertib -0.07 | [4] 0.001 | doramapimod 0.015 | ispinesib -0.044 | bafetinib -0.058 | [5] -0.112 | nilotinib 0.077 | [6] 0.031 | dasatinib -0.04 | [7] -0.056 | [8] 0.029 | [9] 0.015 | tipifarnib 0.058 | mubritinib 0.005

SLC43A1 (UniProt O75387)
inactive: [1] 0.033 | crizotinib 0.026 | [2] 0.205 | [3] -0.073 | duvelisib 0.097 | gandotinib 0.045 | tozasertib 0.037 | [4] -0.07 | doramapimod 0.013 | ispinesib 0.082 | bafetinib -0.006 | [5] -0.044 | nilotinib 0.009 | [6] 0.05 | dasatinib -0.047 | [7] 0.034 | [8] 0.064 | [9] 0.011 | tipifarnib 0 | mubritinib 0.049

SLC4A1 (UniProt P02730)
inactive: [1] 0.052 | crizotinib -0.039 | [2] 0.062 | [3] -0.011 | duvelisib 0.056 | gandotinib -0.053 | tozasertib -0.111 | [4] 0.01 | doramapimod 0.149 | ispinesib -0.062 | bafetinib -0.195 | [5] 0.034 | nilotinib -0.099 | [6] 0.008 | dasatinib 0.035 | [7] 0.038 | [8] 0.041 | [9] -0.005 | tipifarnib 0.014 | mubritinib 0.028

SLC29A1 isoform 2 (UniProt Q99808)
inactive: [1] 0.046 | crizotinib 0.119 | [2] 0.044 | [3] -0.081 | duvelisib 0.097 | gandotinib -0.118 | tozasertib -0.003 | [4] -0.041 | doramapimod -0.065 | ispinesib 0.165 | bafetinib 0.047 | [5] -0.005 | nilotinib 0.018 | [6] 0.046 | dasatinib 0.046 | [7] -0.036 | [8] 0.034 | [9] -0.051 | tipifarnib -0.031 | mubritinib 0.021

SLC4A1AP (UniProt Q9BWU0)
inactive: [1] -0.009 | crizotinib 0.047 | [2] 0.048 | [3] 0.027 | duvelisib 0.075 | gandotinib -0.026 | tozasertib 0.063 | [4] 0.037 | doramapimod -0.019 | ispinesib 0.046 | bafetinib -0.007 | [5] 0.052 | nilotinib -0.003 | [6] -0.085 | dasatinib -0.038 | [7] -0.03 | [8] -0.035 | [9] 0.006 | tipifarnib 0.107 | mubritinib 0.029

SLC38A10 (UniProt Q9HBR0)
inactive: [1] 0.026 | crizotinib -0.012 | [2] 0.069 | [3] -0.034 | duvelisib -0.018 | gandotinib 0.04 | tozasertib -0.009 | [4] -0.074 | doramapimod 0.117 | ispinesib -0.032 | bafetinib -0.013 | [5] -0.03 | nilotinib -0.012 | [6] -0.011 | dasatinib 0.085 | [7] 0.023 | [8] 0 | [9] 0.007 | tipifarnib -0.04 | mubritinib 0.114

SLC37A4 isoform 2 (UniProt O43826)
inactive: [1] 0.011 | crizotinib 0.064 | [2] 0.016 | [3] -0.044 | duvelisib 0.014 | gandotinib 0.021 | tozasertib -0.028 | [4] -0.032 | doramapimod 0.016 | ispinesib -0.061 | bafetinib -0.05 | [5] -0.044 | nilotinib -0.044 | [6] 0.011 | dasatinib 0.068 | [7] -0.051 | [8] 0.029 | [9] 0.009 | tipifarnib -0.018 | mubritinib 0.058

SLC39A10 (UniProt Q9ULF5)
inactive: [1] 0.034 | crizotinib 0.062 | [2] 0.016 | [3] -0.073 | duvelisib 0.078 | gandotinib -0.005 | tozasertib -0.093 | [4] -0.048 | doramapimod 0.028 | ispinesib 0.072 | bafetinib -0.051 | [5] -0.013 | nilotinib 0.069 | [6] 0.009 | dasatinib 0.059 | [7] 0.024 | [8] 0.088 | [9] -0.036 | tipifarnib 0.06 | mubritinib 0.085

SLC6A8 (UniProt P48029)
inactive: [1] 0.085 | crizotinib 0.06 | [2] 0.149 | [3] -0.06 | duvelisib 0.03 | gandotinib -0.147 | tozasertib 0.017 | [4] -0.016 | doramapimod -0.062 | ispinesib 0.049 | bafetinib 0.032 | [5] 0.079 | nilotinib 0.007 | [6] 0.073 | dasatinib 0.08 | [7] -0.008 | [8] 0.092 | [9] 0.043 | tipifarnib 0 | mubritinib -0.055
